Some of the results follow.
Columns and labels:
Experiment in all cases: log2 fold change, soluble protein after heating vs DMSO (PISA); higher = thermal stabilisation; K562 lysate, 10 uM; active = over 0.2 and 3.5 SD of the protein, either way, in both replicates (recomputed)
[1] = compound: C[C@H](Nc1ncnc2nc[nH]c12)c1cc2cccc(Cl)c2c(=O)n1-c1ccccc1 [duvelisib]
Outline: (§1)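 Values give the log-two fold change in thermal stability against solvent controls, from duplicates. Crude K562 extract at 1 mg/mL protein, made by dounce homogenisation in PBS pH 7.4 with 1 mM MgCl2, was treated with 10 μM compound for 30 min. After 3 min heating across 48°C-58°C, aliquots were pooled, adjusted to 0.5% NP-40 at 4°C and centrifuged at 21,000xg for 90 min. The supernatant was measured by TMTpro 16plex LC-MS/MS with channel sums equalised.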

Amino acid sequences for entries named in this document (tags omitted). A change or cut given only in a name is not applied to a line headed by its entry.
UniProt Q8TC44: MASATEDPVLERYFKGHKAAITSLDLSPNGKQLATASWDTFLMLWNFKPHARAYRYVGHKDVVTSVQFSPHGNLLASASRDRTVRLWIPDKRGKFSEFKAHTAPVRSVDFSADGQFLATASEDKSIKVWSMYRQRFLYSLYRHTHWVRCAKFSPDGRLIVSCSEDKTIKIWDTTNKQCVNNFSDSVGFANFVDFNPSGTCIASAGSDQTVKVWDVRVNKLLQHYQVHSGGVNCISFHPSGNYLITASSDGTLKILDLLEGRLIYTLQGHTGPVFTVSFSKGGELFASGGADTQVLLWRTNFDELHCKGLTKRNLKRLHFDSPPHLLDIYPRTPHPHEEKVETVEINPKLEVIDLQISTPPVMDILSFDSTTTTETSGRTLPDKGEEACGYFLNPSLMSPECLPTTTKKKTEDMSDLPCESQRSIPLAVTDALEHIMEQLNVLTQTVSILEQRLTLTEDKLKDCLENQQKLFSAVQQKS
UniProt P45877: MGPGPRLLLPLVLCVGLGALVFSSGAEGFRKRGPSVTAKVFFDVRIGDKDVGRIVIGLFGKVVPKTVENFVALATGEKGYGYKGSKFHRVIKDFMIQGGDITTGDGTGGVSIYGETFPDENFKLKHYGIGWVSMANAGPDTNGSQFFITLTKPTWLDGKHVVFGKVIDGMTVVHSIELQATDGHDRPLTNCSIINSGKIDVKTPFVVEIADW
UniProt Q9H5K3: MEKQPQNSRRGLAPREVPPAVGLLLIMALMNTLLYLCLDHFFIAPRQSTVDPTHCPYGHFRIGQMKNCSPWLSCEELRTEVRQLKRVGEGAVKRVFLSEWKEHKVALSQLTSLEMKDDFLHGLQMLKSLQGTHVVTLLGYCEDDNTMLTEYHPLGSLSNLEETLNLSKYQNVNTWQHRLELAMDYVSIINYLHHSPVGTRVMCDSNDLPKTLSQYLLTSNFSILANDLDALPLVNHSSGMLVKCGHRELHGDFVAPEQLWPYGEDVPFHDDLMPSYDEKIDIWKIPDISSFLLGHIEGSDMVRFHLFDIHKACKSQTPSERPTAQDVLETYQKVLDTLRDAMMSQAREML
UniProt O43157, whole entry, looked up: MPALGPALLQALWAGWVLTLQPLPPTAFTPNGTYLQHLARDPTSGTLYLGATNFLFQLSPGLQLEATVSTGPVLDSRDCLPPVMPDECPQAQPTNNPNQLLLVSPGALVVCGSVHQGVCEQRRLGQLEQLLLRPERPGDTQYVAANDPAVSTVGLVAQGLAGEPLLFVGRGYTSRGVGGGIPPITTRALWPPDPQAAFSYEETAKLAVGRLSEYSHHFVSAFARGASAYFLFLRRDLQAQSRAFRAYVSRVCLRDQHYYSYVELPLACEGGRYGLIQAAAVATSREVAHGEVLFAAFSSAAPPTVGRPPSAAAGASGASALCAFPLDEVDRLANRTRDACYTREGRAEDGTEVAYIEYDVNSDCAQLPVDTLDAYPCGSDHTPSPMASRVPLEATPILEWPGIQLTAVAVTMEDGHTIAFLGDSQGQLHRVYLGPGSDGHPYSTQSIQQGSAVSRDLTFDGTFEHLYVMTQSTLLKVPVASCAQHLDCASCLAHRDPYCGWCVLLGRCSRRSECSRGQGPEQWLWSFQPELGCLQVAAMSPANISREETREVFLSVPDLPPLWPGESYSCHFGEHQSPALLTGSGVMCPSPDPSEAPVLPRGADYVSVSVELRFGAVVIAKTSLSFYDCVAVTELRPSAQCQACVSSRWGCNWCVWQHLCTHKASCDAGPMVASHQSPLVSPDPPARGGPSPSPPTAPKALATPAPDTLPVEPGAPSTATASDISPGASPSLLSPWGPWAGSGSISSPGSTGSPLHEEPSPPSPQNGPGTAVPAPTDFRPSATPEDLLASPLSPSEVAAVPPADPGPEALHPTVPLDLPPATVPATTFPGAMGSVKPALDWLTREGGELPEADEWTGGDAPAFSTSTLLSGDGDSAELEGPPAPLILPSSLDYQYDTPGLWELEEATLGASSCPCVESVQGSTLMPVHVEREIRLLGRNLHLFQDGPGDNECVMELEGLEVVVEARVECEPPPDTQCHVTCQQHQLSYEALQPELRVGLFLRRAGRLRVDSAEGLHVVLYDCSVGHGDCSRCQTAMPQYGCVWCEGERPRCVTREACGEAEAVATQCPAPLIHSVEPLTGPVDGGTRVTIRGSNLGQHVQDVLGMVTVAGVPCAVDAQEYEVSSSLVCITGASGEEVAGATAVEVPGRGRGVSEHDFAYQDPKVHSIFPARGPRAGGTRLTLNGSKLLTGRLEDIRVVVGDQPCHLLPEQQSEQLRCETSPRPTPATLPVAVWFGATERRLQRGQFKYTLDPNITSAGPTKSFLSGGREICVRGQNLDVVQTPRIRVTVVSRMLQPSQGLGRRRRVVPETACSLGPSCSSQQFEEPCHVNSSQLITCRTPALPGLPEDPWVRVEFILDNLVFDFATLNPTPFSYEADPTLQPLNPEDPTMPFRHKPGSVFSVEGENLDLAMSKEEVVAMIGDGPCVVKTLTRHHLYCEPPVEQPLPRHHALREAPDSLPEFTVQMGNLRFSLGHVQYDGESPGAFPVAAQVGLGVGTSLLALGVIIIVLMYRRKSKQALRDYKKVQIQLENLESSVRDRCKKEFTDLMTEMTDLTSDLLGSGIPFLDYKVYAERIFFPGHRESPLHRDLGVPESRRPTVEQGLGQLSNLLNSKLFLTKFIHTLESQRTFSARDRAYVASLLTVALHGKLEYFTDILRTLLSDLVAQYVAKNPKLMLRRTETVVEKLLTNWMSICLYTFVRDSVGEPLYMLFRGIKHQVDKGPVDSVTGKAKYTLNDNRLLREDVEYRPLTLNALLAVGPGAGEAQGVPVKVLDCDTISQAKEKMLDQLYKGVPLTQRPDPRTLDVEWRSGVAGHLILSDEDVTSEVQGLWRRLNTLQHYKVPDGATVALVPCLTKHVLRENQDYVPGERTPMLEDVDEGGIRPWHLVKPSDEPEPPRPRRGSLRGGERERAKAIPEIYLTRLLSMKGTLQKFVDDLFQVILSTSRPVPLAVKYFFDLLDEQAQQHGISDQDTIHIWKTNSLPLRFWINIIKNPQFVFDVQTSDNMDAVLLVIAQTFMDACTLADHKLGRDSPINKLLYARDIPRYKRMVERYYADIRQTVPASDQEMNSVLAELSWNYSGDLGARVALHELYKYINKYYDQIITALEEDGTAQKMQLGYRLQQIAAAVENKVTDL
UniProt P62937, whole entry, looked up: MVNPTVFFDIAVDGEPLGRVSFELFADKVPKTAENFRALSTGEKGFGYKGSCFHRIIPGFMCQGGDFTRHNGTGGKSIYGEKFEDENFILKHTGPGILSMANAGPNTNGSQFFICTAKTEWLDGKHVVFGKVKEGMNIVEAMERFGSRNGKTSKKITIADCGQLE
UniProt Q8WVV4: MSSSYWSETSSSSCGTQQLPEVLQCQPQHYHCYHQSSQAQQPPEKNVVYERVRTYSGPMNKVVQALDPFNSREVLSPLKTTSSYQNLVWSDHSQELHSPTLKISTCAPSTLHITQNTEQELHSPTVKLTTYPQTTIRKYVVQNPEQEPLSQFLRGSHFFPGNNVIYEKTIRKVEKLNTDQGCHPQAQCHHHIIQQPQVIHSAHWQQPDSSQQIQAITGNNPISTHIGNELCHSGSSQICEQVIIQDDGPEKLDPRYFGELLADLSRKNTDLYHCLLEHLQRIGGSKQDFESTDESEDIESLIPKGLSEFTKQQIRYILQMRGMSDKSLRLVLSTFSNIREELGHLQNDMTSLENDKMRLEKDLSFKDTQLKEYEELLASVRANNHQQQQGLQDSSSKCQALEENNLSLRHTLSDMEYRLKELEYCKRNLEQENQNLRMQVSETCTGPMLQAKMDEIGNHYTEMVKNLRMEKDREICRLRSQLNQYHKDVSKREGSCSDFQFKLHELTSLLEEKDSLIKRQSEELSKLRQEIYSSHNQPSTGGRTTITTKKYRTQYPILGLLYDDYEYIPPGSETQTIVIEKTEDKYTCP
UniProt Q86W92: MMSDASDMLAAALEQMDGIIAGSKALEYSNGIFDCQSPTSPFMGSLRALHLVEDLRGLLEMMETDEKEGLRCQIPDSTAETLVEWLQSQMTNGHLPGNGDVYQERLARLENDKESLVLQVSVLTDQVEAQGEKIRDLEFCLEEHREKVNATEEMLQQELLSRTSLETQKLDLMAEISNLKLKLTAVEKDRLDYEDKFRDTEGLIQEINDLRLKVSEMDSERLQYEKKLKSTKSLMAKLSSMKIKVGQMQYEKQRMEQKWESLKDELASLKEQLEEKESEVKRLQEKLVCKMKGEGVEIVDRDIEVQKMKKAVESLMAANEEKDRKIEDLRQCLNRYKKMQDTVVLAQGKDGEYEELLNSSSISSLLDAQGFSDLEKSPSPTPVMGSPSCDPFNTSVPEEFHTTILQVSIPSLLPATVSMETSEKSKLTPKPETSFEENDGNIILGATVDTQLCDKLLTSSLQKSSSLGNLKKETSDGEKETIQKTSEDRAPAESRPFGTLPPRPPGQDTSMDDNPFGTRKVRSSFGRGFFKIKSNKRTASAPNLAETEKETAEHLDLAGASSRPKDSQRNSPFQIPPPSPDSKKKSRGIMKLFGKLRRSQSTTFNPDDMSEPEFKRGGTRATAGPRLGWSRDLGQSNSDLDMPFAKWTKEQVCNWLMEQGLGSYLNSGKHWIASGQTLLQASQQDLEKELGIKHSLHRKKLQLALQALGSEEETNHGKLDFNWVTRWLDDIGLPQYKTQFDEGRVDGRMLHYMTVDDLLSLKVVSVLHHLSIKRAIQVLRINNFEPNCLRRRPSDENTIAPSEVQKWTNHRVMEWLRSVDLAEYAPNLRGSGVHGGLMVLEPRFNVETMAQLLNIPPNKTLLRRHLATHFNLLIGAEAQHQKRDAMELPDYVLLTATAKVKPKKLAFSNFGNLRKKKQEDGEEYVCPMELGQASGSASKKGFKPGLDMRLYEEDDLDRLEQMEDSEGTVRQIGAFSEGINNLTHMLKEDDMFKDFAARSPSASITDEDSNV
UniProt P11086: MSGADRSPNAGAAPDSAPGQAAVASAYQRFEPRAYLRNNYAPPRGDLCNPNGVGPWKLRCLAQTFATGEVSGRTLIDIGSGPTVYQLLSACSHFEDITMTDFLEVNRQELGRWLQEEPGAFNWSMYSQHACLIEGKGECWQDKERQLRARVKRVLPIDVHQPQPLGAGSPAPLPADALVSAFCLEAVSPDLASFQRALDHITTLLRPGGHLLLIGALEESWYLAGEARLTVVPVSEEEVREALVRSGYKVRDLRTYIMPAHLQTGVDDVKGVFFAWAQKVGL
UniProt Q9HCU8: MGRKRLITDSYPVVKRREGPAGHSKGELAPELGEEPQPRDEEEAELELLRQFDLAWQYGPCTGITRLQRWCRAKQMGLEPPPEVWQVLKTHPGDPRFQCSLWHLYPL
UniProt P54277: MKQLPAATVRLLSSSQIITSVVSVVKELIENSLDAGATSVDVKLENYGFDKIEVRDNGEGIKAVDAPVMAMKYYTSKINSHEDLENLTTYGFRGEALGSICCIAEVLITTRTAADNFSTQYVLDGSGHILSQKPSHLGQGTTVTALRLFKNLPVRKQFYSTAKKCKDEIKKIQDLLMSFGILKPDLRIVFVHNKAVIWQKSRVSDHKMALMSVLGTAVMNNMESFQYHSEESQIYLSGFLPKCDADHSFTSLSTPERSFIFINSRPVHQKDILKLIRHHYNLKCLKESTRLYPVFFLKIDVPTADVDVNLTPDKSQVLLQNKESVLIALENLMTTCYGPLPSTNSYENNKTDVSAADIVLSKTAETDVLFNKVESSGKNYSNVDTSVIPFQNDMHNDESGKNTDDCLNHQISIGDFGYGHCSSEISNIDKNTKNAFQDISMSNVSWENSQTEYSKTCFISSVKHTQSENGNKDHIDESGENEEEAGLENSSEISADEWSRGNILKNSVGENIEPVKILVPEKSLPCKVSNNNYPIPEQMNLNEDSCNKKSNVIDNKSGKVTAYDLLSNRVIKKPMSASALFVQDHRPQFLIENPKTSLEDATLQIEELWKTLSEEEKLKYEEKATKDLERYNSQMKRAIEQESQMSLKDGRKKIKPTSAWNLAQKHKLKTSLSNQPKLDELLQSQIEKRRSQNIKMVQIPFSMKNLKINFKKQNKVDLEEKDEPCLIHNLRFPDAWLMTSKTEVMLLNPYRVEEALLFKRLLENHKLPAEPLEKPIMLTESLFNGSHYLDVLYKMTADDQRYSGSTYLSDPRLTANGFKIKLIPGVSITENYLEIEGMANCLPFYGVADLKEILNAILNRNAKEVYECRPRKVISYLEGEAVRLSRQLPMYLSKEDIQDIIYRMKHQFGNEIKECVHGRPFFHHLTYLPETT
UniProt Q9NW61: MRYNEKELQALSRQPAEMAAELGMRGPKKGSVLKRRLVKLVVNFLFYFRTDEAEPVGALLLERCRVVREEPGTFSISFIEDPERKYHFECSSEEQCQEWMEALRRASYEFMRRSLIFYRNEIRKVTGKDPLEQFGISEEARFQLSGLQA
UniProt Q9HBL7: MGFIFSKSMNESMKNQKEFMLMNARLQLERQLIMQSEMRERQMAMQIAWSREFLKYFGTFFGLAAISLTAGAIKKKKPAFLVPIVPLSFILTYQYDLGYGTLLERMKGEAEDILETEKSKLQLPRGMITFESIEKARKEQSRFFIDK

[2] = compound: Cc1cc(Nc2cc(N3CCN(C)CC3)nc(Sc3ccc(NC(=O)C4CC4)cc3)n2)n[nH]1 [tozasertib]
Outline: as §1

[3] = compound: Cc1nc(Nc2ncc(C(=O)Nc3c(C)cccc3Cl)s2)cc(N2CCN(CCO)CC2)n1 [dasatinib]
Outline: as §1

[4] = compound: Cn1cc(-c2ccc3c(c2)CCN3C(=O)Cc2cccc(C(F)(F)F)c2)c2c(N)ncnc21
Outline: as §1

[5] = compound: NC1(c2ccc(-c3nc4ccn5c(=O)[nH]nc5c4cc3-c3ccccc3)cc2)CCC1
Outline: as §1

[6] = compound: CS(=O)(=O)N1CCN(Cc2cc3nc(-c4cccc5[nH]ncc45)nc(N4CCOCC4)c3s2)CC1 [pictilisib]
Outline: as §1

[7] = compound: C[C@@H](Oc1cc(-c2cnn(C3CCNCC3)c2)cnc1N)c1c(Cl)ccc(F)c1Cl [crizotinib]
Outline: as §1

[8] = compound: C[C@H](C1=CC=C(C=C1)C(=O)NC2=C3C=CNC3=NC=C2)N
Outline: as §1

[9] = compound: Cc1cc(Nc2cc(CN3CCOCC3)c3nc(C)c(Cc4ccc(Cl)cc4F)n3n2)n[nH]1 [gandotinib]
Outline: as §1

[10] = compound: Cc1ccc(-n2nc(C(C)(C)C)cc2NC(=O)Nc2ccc(OCCN3CCOCC3)c3ccccc23)cc1 [doramapimod]
Outline: as §1

[11] = compound: Cc1ccc(NC(=O)c2ccc(CN3CC[C@H](N(C)C)C3)c(C(F)(F)F)c2)cc1Nc1nccc(-c2cncnc2)n1 [bafetinib]
Outline: as §1

[12] = compound: Cc1cccc(CC(=O)N2CCc3c2ccc(-c2cn(C)c4ncnc(N)c24)c3F)n1
Outline: as §1

[13] = compound: Cc1cn(-c2cc(NC(=O)c3ccc(C)c(Nc4nccc(-c5cccnc5)n4)c3)cc(C(F)(F)F)c2)cn1 [nilotinib]
Outline: as §1

[14] = compound: Cc1nc(Nc2n[nH]c3c2CN(C(=O)N[C@H](CN(C)C)c2ccccc2)C3(C)C)c2sccc2n1
Outline: as §1

[15] = compound: Cc1ncc(-c2ccnc(Nc3ccc(S(C)(=O)=O)cc3)n2)n1C(C)C
Outline: as §1

[16] = compound: Cn1cc(CNCC2CCN(c3ncc(C(=O)NO)cn3)CC2)c2ccccc21 [quisinostat]
Outline: as §1

[17] = compound: Cn1cncc1[C@@](N)(c1ccc(Cl)cc1)c1ccc2c(c1)c(-c1cccc(Cl)c1)cc(=O)n2C [tipifarnib]
Outline: as §1

[18] = compound: NC(=O)Nc1cc(-c2cccc(F)c2)sc1C(=O)N[C@H]1CCCNC1
Outline: as §1

[19] = compound: CS(=O)(=O)CCNCc1ccc(-c2ccc3ncnc(Nc4ccc(OCc5cccc(F)c5)c(Cl)c4)c3c2)o1 [lapatinib]
Outline: as §1

[20] = compound: NC(=O)c1cnc(N[C@@H]2CCCC[C@@H]2N)nc1Nc1cccc(-n2nccn2)c1
Outline: as §1

Target | log2 fold change [1] | log2 fold change [2] | log2 fold change [3] | log2 fold change [4] | log2 fold change [5] | log2 fold change [6] | log2 fold change [7] | log2 fold change [8] | log2 fold change [9] | log2 fold change [10] | log2 fold change [11] | log2 fold change [12] | log2 fold change [13] | log2 fold change [14] | log2 fold change [15] | log2 fold change [16] | log2 fold change [17] | log2 fold change [18] | log2 fold change [19] | log2 fold change [20]
POC1B (UniProt Q8TC44) | inactive: -0.076 | inactive: -0.109 | inactive: 0.026 | inactive: 0.185 | inactive: -0.167 |  |  |  |  |  |  |  |  |  |  |  |  |  |  | 
PPIC (UniProt P45877) | inactive: -0.095 |  | inactive: 0.037 | inactive: -0.036 | inactive: -0.045 | inactive: -0.003 | inactive: -0.131 | inactive: -0.078 | inactive: -0.042 | inactive: 0.086 | inactive: -0.061 | inactive: 0.079 | inactive: -0.112 | inactive: 0.069 | inactive: -0.02 | inactive: -0.063 | inactive: 0.145 | inactive: 0.206 |  | 
PLEKHG4 (UniProt Q58EX7) | inactive: 0.095 | inactive: 0.045 | inactive: -0.003 | inactive: -0.011 |  |  | inactive: -0.054 | inactive: 0.064 | inactive: -0.014 | inactive: -0.014 |  | inactive: -0.11 | inactive: -0.037 | inactive: 0.09 | inactive: 0.024 | inactive: -0.017 | inactive: 0.237 | inactive: 0.096 |  | 
POMK (UniProt Q9H5K3) | inactive: -0.007 | inactive: -0.018 | inactive: -0.063 | inactive: 0.037 | inactive: 0.014 | inactive: -0.138 | inactive: -0.03 | inactive: 0.061 | inactive: -0.11 | inactive: 0 | inactive: -0.022 | inactive: -0.009 |  |  |  | inactive: 0.027 |  | inactive: 0.036 |  | 
POLR2K (UniProt P53803) | inactive: 0.001 | inactive: 0.122 | inactive: -0.067 | inactive: -0.137 |  | inactive: 0.02 | inactive: 0.052 | inactive: -0.048 | inactive: -0.04 | inactive: 0.129 | inactive: 0.018 | inactive: -0.095 |  |  |  | inactive: 0.041 |  | inactive: -0.034 |  | 
PLXNB1 (UniProt O43157) | inactive: -0.007 |  | inactive: -0.152 | inactive: 0.223 | inactive: -0.004 |  | inactive: -0.027 |  |  | inactive: -0.053 |  |  | inactive: -0.001 | inactive: -0.05 | inactive: 0.062 | inactive: 0.036 | inactive: 0.004 | inactive: -0.079 |  | 
PPIA isoform 2 (UniProt P62937) |  |  |  |  |  | inactive: 0 |  |  |  |  | inactive: 0.218 |  | inactive: -0.088 | inactive: 0.043 | inactive: 0.033 |  | inactive: -0.139 |  |  | 
POF1B isoform 1 (UniProt Q8WVV4) | inactive: 0.013 |  | inactive: -0.024 | inactive: -0.265 |  |  |  | inactive: 0.645 | inactive: 0.653 |  |  | inactive: -0.172 |  |  |  |  |  |  |  | 
PPFIBP1 (UniProt Q86W92) |  | inactive: 0.146 |  |  |  |  | inactive: -0.038 |  |  | inactive: -0.043 |  |  |  |  |  | inactive: 0.012 |  | inactive: -0.003 |  | 
PLXND1 (UniProt Q9Y4D7) | inactive: -0.031 |  | inactive: -0.045 | inactive: 0.013 | inactive: 0.094 | inactive: 0.018 | inactive: 0.067 |  |  | inactive: 0.171 | active: -0.461 |  | inactive: -0.006 | inactive: 0.043 | inactive: 0.092 | inactive: -0.093 | inactive: 0.014 | inactive: -0.047 |  | 
POLG2 (UniProt J3KRM2) |  |  |  |  | inactive: -0.118 | inactive: -0.115 |  |  |  |  | inactive: -0.225 |  | inactive: 0.052 | inactive: 0.04 | inactive: -0.001 |  | inactive: -0.115 |  | inactive: -0.167 | inactive: 0.096
PNMT (UniProt P11086) |  |  |  |  | inactive: -0.062 |  | inactive: -0.547 |  |  | inactive: -0.172 |  |  |  |  |  | inactive: -0.181 |  | inactive: 0.085 | inactive: -0.08 | inactive: -0.021
POLD4 (UniProt Q9HCU8) | inactive: 0.046 | inactive: 0.053 | inactive: -0.011 | inactive: -0.025 | inactive: -0.007 |  | inactive: 0.004 |  |  | inactive: -0.152 |  |  | inactive: 0.083 | inactive: 0 | inactive: 0.003 | inactive: 0.039 | inactive: -0.059 | inactive: 0.013 | inactive: 0.014 | inactive: 0.036
PMS1 (UniProt P54277) | inactive: 0.018 | inactive: -0.053 | inactive: -0.011 | inactive: 0.017 | inactive: -0.029 | inactive: -0.028 | inactive: -0.004 | inactive: 0.018 | inactive: -0.063 | inactive: -0.03 | inactive: -0.064 | inactive: -0.013 | inactive: -0.022 | inactive: 0 | inactive: -0.001 | inactive: -0.086 | inactive: 0.058 | inactive: 0.041 |  | 
PPARGC1B (UniProt Q86YN6) |  |  |  |  | inactive: 0 |  |  |  |  |  |  |  |  |  |  |  |  |  |  | 
PLEKHJ1 (UniProt Q9NW61) |  |  |  |  | inactive: 0.019 |  | inactive: -0.048 | inactive: -0.031 | inactive: -0.101 | inactive: 0.031 |  | inactive: 0.066 |  |  |  | inactive: -0.022 |  | inactive: 0.054 |  | 
PLGRKT (UniProt Q9HBL7) | inactive: 0.203 | inactive: 0.065 | inactive: -0.173 | inactive: 0 | inactive: 0.001 | inactive: -0.042 | inactive: -0.136 |  |  | inactive: -0.009 | inactive: -0.095 |  | inactive: 0.028 | inactive: 0.003 | inactive: -0.083 | inactive: -0.014 | inactive: -0.067 | inactive: 0.078 |  | 

2 records drawn at random from the list so far, as already listed:
Target | log2 fold change [1] | log2 fold change [2] | log2 fold change [3] | log2 fold change [4] | log2 fold change [5] | log2 fold change [6] | log2 fold change [7] | log2 fold change [8] | log2 fold change [9] | log2 fold change [10] | log2 fold change [11] | log2 fold change [12] | log2 fold change [13] | log2 fold change [14] | log2 fold change [15] | log2 fold change [16] | log2 fold change [17] | log2 fold change [18] | log2 fold change [19] | log2 fold change [20]
PLXND1 (UniProt Q9Y4D7) | inactive: -0.031 |  | inactive: -0.045 | inactive: 0.013 | inactive: 0.094 | inactive: 0.018 | inactive: 0.067 |  |  | inactive: 0.171 | active: -0.461 |  | inactive: -0.006 | inactive: 0.043 | inactive: 0.092 | inactive: -0.093 | inactive: 0.014 | inactive: -0.047 |  | 
PPFIBP1 (UniProt Q86W92) |  | inactive: 0.146 |  |  |  |  | inactive: -0.038 |  |  | inactive: -0.043 |  |  |  |  |  | inactive: 0.012 |  | inactive: -0.003 |  | 

Source: the supplement of paper PMC10849652
